Counter-ions that a name gives are not always drawn. This is one part of the list. The calls rarely recur for the same compound in another form.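 Kinases were expressed as nanoluciferase fusions in K562 cells and luminescence was read every 4 h between 2 and 18 h as percent of control, DMSO set to 100% and a positive control to 0%. A time point counts as decreased when the signal drops significantly (2 sigma). The hit call is the authors' own, does not follow from the count of time points alone, and its rule is not shown.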
How the values were obtained:
Assay in all cases: kinase-Nluc reporter destabilization hit call (1 = scored as downregulated) (binary); higher = compound decreases kinase abundance
Settings in all cases: K562; 2-18 h
ABL1 = ABL1 (UniProt P00519)
AKT1 = AKT1 (UniProt P31749)
ALK = ALK (UniProt Q9UM73)
ARAF = ARAF (UniProt P10398)
AURKA = AURKA (UniProt O14965)
AURKB = AURKB (UniProt Q96GD4)
AURKC = AURKC (UniProt Q9UQB9)
BLK = BLK (UniProt P51451)
BMX = BMX (UniProt P51813)
BRAF = BRAF (UniProt P15056)
BRAF_V600E = test system: BRAF_V600E
BTK = BTK (UniProt Q06187)
CAMK2A = CAMK2A (UniProt Q9UQM7)
CAMK2G = CAMK2G (UniProt Q13555)
CDK10 = CDK10 (UniProt Q15131)
CDK2 = CDK2 (UniProt P24941)
CDK3 = CDK3 (UniProt Q00526)
CDK4 = CDK4 (UniProt P11802)
CDK5 = CDK5 (UniProt Q00535)
CDK6 = CDK6 (UniProt Q00534)

Amino acid sequences for entries named in this document (tags omitted). A change or cut given only in a name is not applied to a line headed by its entry.
UniProt P31749: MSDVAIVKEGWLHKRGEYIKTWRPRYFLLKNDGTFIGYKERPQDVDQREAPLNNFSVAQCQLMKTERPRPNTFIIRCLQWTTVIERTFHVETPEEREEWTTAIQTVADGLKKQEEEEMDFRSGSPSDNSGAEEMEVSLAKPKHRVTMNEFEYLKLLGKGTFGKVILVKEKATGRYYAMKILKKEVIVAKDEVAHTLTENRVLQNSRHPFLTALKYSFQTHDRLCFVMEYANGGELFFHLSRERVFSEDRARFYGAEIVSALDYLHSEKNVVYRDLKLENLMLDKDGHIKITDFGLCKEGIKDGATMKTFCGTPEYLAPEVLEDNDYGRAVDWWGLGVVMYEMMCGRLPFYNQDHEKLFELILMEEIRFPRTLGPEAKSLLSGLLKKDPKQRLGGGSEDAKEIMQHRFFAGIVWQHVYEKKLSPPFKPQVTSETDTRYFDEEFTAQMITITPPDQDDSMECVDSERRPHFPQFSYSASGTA
UniProt Q9UM73: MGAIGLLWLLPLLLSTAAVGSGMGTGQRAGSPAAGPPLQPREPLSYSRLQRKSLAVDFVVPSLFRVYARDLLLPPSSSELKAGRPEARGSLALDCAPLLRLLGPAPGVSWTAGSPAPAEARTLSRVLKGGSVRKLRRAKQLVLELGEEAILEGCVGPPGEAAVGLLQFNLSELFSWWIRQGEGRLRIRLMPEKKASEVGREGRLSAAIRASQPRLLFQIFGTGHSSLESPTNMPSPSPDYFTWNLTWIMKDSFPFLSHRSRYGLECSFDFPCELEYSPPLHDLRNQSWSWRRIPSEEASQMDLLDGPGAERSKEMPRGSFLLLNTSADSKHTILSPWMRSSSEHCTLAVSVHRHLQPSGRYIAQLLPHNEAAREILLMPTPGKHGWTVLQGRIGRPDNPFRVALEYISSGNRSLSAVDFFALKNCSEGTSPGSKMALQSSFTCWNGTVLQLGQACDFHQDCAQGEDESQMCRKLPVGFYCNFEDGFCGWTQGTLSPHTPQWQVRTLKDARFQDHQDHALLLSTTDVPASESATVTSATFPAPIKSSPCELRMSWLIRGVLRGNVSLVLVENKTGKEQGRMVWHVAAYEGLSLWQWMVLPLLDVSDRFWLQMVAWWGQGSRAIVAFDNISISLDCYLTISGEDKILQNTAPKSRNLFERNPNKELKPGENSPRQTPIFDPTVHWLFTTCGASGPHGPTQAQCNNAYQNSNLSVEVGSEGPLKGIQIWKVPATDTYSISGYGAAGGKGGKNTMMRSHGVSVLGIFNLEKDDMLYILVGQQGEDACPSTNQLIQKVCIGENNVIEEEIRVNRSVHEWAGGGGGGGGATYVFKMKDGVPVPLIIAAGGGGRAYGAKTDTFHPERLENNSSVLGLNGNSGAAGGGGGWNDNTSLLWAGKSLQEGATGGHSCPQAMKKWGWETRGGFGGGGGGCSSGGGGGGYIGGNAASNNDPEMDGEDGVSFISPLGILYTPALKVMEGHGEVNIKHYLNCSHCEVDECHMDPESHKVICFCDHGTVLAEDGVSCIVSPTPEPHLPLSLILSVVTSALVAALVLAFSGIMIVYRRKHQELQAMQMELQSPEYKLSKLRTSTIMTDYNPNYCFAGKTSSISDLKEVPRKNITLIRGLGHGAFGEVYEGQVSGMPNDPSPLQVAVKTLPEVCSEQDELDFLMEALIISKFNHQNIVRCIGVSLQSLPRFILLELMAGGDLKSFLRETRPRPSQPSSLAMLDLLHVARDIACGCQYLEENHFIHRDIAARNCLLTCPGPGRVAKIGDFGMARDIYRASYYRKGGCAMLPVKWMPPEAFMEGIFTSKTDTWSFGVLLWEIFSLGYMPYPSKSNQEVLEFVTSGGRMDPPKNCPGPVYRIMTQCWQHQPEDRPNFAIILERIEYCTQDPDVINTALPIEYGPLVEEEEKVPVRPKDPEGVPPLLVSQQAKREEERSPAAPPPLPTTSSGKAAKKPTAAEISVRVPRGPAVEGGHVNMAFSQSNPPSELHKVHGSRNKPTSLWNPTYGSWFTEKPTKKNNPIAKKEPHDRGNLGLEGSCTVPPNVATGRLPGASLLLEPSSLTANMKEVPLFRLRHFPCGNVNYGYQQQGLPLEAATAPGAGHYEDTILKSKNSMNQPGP
UniProt O14965: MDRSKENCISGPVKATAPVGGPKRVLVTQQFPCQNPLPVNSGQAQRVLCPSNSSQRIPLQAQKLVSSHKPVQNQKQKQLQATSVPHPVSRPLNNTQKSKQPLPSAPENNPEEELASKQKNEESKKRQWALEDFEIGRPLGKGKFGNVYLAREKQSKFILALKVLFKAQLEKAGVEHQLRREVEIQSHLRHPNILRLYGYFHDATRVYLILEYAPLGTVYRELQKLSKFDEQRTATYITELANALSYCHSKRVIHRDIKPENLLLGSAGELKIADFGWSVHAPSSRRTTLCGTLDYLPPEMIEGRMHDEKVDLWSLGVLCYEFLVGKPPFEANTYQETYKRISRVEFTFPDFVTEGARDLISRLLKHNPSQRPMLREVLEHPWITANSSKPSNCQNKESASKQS
UniProt Q96GD4, whole entry: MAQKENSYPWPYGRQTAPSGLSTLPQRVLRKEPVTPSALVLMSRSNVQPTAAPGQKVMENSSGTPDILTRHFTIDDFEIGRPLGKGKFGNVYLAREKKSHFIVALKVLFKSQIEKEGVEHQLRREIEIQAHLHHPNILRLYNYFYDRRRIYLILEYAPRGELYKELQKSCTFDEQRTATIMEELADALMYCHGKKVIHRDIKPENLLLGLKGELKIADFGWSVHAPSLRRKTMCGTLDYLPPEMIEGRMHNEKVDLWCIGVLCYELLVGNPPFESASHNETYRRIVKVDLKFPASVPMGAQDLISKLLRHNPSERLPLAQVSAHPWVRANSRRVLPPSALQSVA
UniProt P51451: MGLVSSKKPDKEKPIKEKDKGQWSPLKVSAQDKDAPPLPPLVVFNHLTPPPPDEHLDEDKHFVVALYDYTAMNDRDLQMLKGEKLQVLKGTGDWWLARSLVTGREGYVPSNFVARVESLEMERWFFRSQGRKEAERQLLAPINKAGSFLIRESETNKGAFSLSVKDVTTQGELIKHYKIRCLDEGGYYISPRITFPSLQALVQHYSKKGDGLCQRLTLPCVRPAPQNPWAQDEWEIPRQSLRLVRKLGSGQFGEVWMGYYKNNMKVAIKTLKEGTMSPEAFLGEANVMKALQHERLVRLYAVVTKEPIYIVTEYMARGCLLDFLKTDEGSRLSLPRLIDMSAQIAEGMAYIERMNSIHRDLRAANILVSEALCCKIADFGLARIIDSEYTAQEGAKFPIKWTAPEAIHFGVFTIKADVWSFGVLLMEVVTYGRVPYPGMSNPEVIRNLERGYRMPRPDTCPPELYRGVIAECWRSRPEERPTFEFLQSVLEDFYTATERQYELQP
UniProt P51813: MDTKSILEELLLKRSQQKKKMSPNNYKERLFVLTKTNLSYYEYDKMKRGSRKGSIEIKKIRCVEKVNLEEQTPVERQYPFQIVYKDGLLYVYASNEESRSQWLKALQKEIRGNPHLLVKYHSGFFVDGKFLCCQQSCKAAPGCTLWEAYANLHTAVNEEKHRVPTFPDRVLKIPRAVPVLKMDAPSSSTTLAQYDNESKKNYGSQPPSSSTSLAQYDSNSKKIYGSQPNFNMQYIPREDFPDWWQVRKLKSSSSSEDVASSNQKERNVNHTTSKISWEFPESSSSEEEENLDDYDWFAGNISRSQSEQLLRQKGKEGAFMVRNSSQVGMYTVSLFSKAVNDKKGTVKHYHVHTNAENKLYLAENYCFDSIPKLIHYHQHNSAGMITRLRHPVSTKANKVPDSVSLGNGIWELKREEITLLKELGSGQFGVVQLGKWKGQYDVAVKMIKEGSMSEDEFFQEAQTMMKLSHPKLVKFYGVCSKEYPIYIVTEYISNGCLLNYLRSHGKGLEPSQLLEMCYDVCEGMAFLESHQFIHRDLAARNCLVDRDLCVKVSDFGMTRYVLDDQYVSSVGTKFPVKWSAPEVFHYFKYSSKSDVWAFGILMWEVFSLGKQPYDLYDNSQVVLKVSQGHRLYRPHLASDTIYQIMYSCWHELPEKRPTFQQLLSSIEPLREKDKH
UniProt P15056, whole entry, looked up: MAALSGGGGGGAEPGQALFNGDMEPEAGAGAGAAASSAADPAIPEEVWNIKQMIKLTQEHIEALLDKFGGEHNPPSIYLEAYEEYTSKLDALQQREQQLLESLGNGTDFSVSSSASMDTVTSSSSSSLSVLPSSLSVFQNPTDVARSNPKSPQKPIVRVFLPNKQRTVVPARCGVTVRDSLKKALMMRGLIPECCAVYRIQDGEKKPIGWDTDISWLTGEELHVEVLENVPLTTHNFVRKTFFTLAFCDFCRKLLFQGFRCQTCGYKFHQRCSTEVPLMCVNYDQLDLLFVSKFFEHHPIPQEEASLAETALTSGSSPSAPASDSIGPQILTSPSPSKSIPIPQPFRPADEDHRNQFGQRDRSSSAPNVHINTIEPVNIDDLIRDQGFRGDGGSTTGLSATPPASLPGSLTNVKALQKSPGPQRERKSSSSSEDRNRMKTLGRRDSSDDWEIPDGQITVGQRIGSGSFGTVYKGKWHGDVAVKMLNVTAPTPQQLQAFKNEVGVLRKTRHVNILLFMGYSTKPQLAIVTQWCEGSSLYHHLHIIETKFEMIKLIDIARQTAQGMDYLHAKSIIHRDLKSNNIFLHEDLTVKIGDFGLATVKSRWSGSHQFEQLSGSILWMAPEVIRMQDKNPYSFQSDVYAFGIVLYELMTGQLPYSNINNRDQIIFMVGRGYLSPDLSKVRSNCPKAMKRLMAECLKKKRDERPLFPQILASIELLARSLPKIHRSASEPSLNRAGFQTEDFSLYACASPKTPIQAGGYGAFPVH
UniProt Q06187: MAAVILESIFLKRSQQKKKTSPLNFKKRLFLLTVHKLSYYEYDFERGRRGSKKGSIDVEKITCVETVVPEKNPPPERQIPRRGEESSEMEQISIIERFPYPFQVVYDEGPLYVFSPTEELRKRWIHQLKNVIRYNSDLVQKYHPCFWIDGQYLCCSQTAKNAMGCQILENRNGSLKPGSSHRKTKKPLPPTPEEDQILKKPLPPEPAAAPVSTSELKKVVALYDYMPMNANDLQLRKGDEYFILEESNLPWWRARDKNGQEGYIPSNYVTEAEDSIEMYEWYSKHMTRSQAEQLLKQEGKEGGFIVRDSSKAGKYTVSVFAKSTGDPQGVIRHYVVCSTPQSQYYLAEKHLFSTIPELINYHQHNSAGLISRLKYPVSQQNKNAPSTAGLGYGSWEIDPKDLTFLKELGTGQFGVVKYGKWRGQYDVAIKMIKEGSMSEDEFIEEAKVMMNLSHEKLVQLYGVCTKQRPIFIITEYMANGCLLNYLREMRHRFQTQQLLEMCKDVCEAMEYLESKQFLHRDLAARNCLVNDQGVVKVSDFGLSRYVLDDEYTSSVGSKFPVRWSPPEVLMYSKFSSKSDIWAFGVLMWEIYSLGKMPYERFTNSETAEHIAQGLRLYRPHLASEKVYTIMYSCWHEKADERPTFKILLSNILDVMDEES
UniProt Q9UQM7, whole entry: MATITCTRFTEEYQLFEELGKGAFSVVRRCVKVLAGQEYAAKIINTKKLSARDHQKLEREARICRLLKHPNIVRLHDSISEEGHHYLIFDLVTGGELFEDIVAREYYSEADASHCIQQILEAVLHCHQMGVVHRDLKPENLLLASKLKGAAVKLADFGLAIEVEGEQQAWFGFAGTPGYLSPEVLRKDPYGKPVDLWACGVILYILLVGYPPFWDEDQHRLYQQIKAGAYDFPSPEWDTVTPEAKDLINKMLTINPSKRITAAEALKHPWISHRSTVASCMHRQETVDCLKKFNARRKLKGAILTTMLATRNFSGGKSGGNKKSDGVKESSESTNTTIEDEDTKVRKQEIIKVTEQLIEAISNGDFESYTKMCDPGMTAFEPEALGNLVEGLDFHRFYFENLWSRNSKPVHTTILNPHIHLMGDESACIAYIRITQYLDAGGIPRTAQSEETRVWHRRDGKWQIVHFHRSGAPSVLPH
UniProt P11802: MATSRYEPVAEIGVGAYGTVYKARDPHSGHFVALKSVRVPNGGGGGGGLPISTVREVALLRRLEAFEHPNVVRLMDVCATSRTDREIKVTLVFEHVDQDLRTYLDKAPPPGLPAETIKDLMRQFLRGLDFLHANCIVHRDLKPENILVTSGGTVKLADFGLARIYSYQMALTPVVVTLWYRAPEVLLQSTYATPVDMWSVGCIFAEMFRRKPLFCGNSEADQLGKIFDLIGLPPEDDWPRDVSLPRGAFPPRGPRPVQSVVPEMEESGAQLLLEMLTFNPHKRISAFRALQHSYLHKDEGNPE
UniProt Q00534, whole entry: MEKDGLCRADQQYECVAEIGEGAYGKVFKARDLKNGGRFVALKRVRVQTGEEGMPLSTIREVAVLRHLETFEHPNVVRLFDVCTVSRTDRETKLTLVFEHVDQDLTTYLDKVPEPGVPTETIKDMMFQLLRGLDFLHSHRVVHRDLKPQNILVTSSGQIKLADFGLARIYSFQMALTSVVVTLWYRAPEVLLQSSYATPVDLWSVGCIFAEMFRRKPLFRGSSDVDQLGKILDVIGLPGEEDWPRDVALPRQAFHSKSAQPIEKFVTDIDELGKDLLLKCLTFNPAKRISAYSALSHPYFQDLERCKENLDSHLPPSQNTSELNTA

Compound	kinase-Nluc reporter destabilization hit call (ABL1)	kinase-Nluc reporter destabilization hit call (AKT1)	kinase-Nluc reporter destabilization hit call (ALK)	kinase-Nluc reporter destabilization hit call (ARAF)	kinase-Nluc reporter destabilization hit call (AURKA)	kinase-Nluc reporter destabilization hit call (AURKB)	kinase-Nluc reporter destabilization hit call (AURKC)	kinase-Nluc reporter destabilization hit call (BLK)	kinase-Nluc reporter destabilization hit call (BMX)	kinase-Nluc reporter destabilization hit call (BRAF)	kinase-Nluc reporter destabilization hit call (BRAF_V600E)	kinase-Nluc reporter destabilization hit call (BTK)	kinase-Nluc reporter destabilization hit call (CAMK2A)	kinase-Nluc reporter destabilization hit call (CAMK2G)	kinase-Nluc reporter destabilization hit call (CDK10)	kinase-Nluc reporter destabilization hit call (CDK2)	kinase-Nluc reporter destabilization hit call (CDK3)	kinase-Nluc reporter destabilization hit call (CDK4)	kinase-Nluc reporter destabilization hit call (CDK5)	kinase-Nluc reporter destabilization hit call (CDK6)
CC(C)(O)[C@@H]1CC[C@](C)([C@H]2[C@@H](O)C[C@@]3(C)[C@@H]4C[C@H](O[C@@H]5O[C@H](CO)[C@@H](O)[C@H](O)[C@H]5O)[C@H]5C(C)(C)[C@@H](O[C@@H]6OC[C@@H](O)[C@H](O)[C@H]6O[C@@H]6O[C@H](CO)[C@@H](O)[C@H](O)[C@H]6O)CC[C@@]56C[C@@]46CC[C@]23C)O1 [Astragaloside VI] (10 µM)	inactive: 0	inactive: 0	inactive: 0	inactive: 0	inactive: 0	inactive: 0	inactive: 0	inactive: 0	inactive: 0	inactive: 0	inactive: 0	inactive: 0	inactive: 0	inactive: 0	inactive: 0	inactive: 0	inactive: 0	inactive: 0	inactive: 0	inactive: 0
O=C1NCCCc2c1oc1ccc(O)cc21 (10 µM)	inactive: 0	inactive: 0	inactive: 0	inactive: 0	inactive: 0	inactive: 0	inactive: 0	inactive: 0	inactive: 0	inactive: 0	inactive: 0	inactive: 0	inactive: 0	inactive: 0	inactive: 0	inactive: 0	inactive: 0	inactive: 0	inactive: 0	inactive: 0
CCCCCCCC/C=C\CCCCCCCC(=O)NCC(=O)O [N-Oleoyl glycine] (10 µM)	inactive: 0	inactive: 0	inactive: 0	inactive: 0	inactive: 0	inactive: 0	inactive: 0	inactive: 0	inactive: 0	inactive: 0	inactive: 0	inactive: 0	inactive: 0	inactive: 0	inactive: 0	inactive: 0	inactive: 0	inactive: 0	inactive: 0	inactive: 0
O=Nc1c(-c2c(O)[nH]c3ccccc23)[nH]c2ccccc12 [Indirubin-3'-monoxime] (2.5 µM)	inactive: 0	inactive: 0	inactive: 0	inactive: 0	inactive: 0	inactive: 0	inactive: 0	inactive: 0	inactive: 0	inactive: 0	inactive: 0	inactive: 0	inactive: 0	inactive: 0	inactive: 0	inactive: 0	inactive: 0	inactive: 0	inactive: 0	inactive: 0
CN1CC[C@H](c2c(O)cc(O)c3c(=O)cc(-c4ccc(C(F)(F)F)cc4Cl)oc23)[C@H]1CO [(2S,3R)-Voruciclib (hydrochloride)] (2.5 µM)	inactive: 0	inactive: 0	inactive: 0	inactive: 0	inactive: 0	inactive: 0	inactive: 0	inactive: 0	inactive: 0	inactive: 0	inactive: 0	inactive: 0	inactive: 0	inactive: 0	inactive: 0	inactive: 0	inactive: 0	inactive: 0	inactive: 0	inactive: 0
Cc1cc(Nc2cc(CN3CCOCC3)c3nc(C)c(Cc4ccc(Cl)cc4F)n3n2)n[nH]1 [Gandotinib] (2.5 µM)	inactive: 0	inactive: 0	inactive: 0	inactive: 0	inactive: 0	inactive: 0	inactive: 0	inactive: 0	inactive: 0	inactive: 0	inactive: 0	inactive: 0	inactive: 0	inactive: 0	inactive: 0	inactive: 0	inactive: 0	inactive: 0	inactive: 0	inactive: 0
CCCCNC(=N)NC(=N)N [Buformin (hydrochloride)] (2.5 µM)	inactive: 0	inactive: 0	inactive: 0	inactive: 0	inactive: 0	inactive: 0	inactive: 0	inactive: 0	inactive: 0	inactive: 0	inactive: 0	inactive: 0	inactive: 0	inactive: 0	inactive: 0	inactive: 0	inactive: 0	inactive: 0	inactive: 0	inactive: 0
COc1ncc(Nc2ncc([C@@H](C)N3CCN(S(C)(=O)=O)CC3)cc2-c2nc(C)nc(N)n2)cc1F (10 µM)	inactive: 0	inactive: 0	inactive: 0	inactive: 0	inactive: 0	inactive: 0	inactive: 0	inactive: 0	inactive: 0	inactive: 0	inactive: 0	inactive: 0	inactive: 0	inactive: 0	inactive: 0	inactive: 0	inactive: 0	inactive: 0	inactive: 0	inactive: 0
COc1cc(N2CCC(N3CCN(C)CC3)CC2)ccc1Nc1nc2c(c(Nc3ccccc3S(=O)(=O)NC(C)C)n1)CCN2 [Conteltinib] (10 µM)	inactive: 0	inactive: 0	inactive: 0	inactive: 0	inactive: 0	inactive: 0	inactive: 0	inactive: 0	inactive: 0	inactive: 0	inactive: 0	inactive: 0	inactive: 0	inactive: 0	inactive: 0	inactive: 0	inactive: 0	inactive: 0	inactive: 0	inactive: 0
COc1nc(-c2ccnc(NC(=O)C3CC3)c2)sc1C(N)=O [GSK-3β inhibitor 2] (10 µM)	inactive: 0	inactive: 0	inactive: 0	inactive: 0	inactive: 0	inactive: 0	inactive: 0	inactive: 0	inactive: 0	inactive: 0	inactive: 0	inactive: 0	inactive: 0	inactive: 0	inactive: 0	inactive: 0	inactive: 0	inactive: 0	inactive: 0	inactive: 0
C[C@H]1[C@H](OC(=O)CCC(=O)O)O[C@@H]2O[C@@]3(C)CC[C@H]4[C@H](C)CC[C@@H]1[C@@]24OO3 [Artesunate] (2.5 µM)	inactive: 0	inactive: 0	inactive: 0	inactive: 0	inactive: 0	inactive: 0	inactive: 0	inactive: 0	inactive: 0	inactive: 0	inactive: 0	inactive: 0	inactive: 0	inactive: 0	inactive: 0	inactive: 0	inactive: 0	inactive: 0	inactive: 0	inactive: 0
C[C@H]1Cc2ccccc2N1C(=O)Cc1nc(N2CCOCC2)cc(=O)[nH]1 (2.5 µM)	inactive: 0	inactive: 0	inactive: 0	inactive: 0	inactive: 0	inactive: 0	inactive: 0	inactive: 0	inactive: 0	inactive: 0	inactive: 0	inactive: 0	inactive: 0	inactive: 0	inactive: 0	inactive: 0	inactive: 0	inactive: 0	inactive: 0	inactive: 0
CC(C)C[C@H](NC(=O)[C@H](CCCCN)NC(=O)[C@H](CO)NC(=O)[C@@H](N)CC(C)C)C(N)=O [LSKL, Inhibitor of Thrombospondin (TSP-1) (TFA)] (10 µM)	inactive: 0	inactive: 0	inactive: 0	inactive: 0	inactive: 0	inactive: 0	inactive: 0	inactive: 0	inactive: 0	inactive: 0	inactive: 0	inactive: 0	inactive: 0	inactive: 0	inactive: 0	inactive: 0	inactive: 0	inactive: 0	inactive: 0	inactive: 0
C=CC(=O)N1CCC[C@@H](n2nc(C(=O)Nc3ccc(CC(=O)N(C)C)c(C)c3C)c3c(N)ncnc32)C1 (10 µM)	inactive: 0	inactive: 0	inactive: 0	inactive: 0	inactive: 0	inactive: 0	inactive: 0	inactive: 0	inactive: 0	inactive: 0	inactive: 0	inactive: 0	inactive: 0	inactive: 0	inactive: 0	inactive: 0	inactive: 0	inactive: 0	inactive: 0	inactive: 0
N#C/C(=C\c1ccc2oc(=O)[nH]c2c1)C(=O)c1ccc(O)c(O)c1 (10 µM)	inactive: 0	inactive: 0	inactive: 0	inactive: 0	inactive: 0	inactive: 0	inactive: 0	inactive: 0	inactive: 0	inactive: 0	inactive: 0	inactive: 0	inactive: 0	inactive: 0	inactive: 0	inactive: 0	inactive: 0	inactive: 0	inactive: 0	inactive: 0
COc1c(C)c(C(=O)c2ccc(N)c(C(=O)O)c2)n2ccccc12 (10 µM)	inactive: 0	inactive: 0	inactive: 0	inactive: 0	inactive: 0	inactive: 0	inactive: 0	inactive: 0	inactive: 0	inactive: 0	inactive: 0	inactive: 0	inactive: 0	inactive: 0	inactive: 0	inactive: 0	inactive: 0	inactive: 0	inactive: 0	inactive: 0
CCC(C)(C)C(=O)N(O)Cc1ccccc1 (10 µM)	inactive: 0	inactive: 0	inactive: 0	inactive: 0	inactive: 0	inactive: 0	inactive: 0	inactive: 0	inactive: 0	inactive: 0	inactive: 0	inactive: 0	inactive: 0	inactive: 0	inactive: 0	inactive: 0	inactive: 0	inactive: 0	inactive: 0	inactive: 0
CN(CC(=O)N(Cc1ccc(C2CCCCC2)cc1)c1ccc(C(=O)O)c(O)c1)S(=O)(=O)c1c(F)c(F)c(F)c(F)c1F (2.5 µM)	inactive: 0	inactive: 0	inactive: 0	inactive: 0	inactive: 0	inactive: 0	inactive: 0	active: 1	inactive: 0	inactive: 0	inactive: 0	inactive: 0	inactive: 0	inactive: 0	inactive: 0	inactive: 0	inactive: 0	inactive: 0	inactive: 0	inactive: 0

3 structures out of the list, sorted by molecular weight, rising:
Compound	kinase-Nluc reporter destabilization hit call (ABL1)	kinase-Nluc reporter destabilization hit call (AKT1)	kinase-Nluc reporter destabilization hit call (ALK)	kinase-Nluc reporter destabilization hit call (ARAF)	kinase-Nluc reporter destabilization hit call (AURKA)	kinase-Nluc reporter destabilization hit call (AURKB)	kinase-Nluc reporter destabilization hit call (AURKC)	kinase-Nluc reporter destabilization hit call (BLK)	kinase-Nluc reporter destabilization hit call (BMX)	kinase-Nluc reporter destabilization hit call (BRAF)	kinase-Nluc reporter destabilization hit call (BRAF_V600E)	kinase-Nluc reporter destabilization hit call (BTK)	kinase-Nluc reporter destabilization hit call (CAMK2A)	kinase-Nluc reporter destabilization hit call (CAMK2G)	kinase-Nluc reporter destabilization hit call (CDK10)	kinase-Nluc reporter destabilization hit call (CDK2)	kinase-Nluc reporter destabilization hit call (CDK3)	kinase-Nluc reporter destabilization hit call (CDK4)	kinase-Nluc reporter destabilization hit call (CDK5)	kinase-Nluc reporter destabilization hit call (CDK6)
O=Nc1c(-c2c(O)[nH]c3ccccc23)[nH]c2ccccc12 [Indirubin-3'-monoxime] (2.5 µM)	inactive: 0	inactive: 0	inactive: 0	inactive: 0	inactive: 0	inactive: 0	inactive: 0	inactive: 0	inactive: 0	inactive: 0	inactive: 0	inactive: 0	inactive: 0	inactive: 0	inactive: 0	inactive: 0	inactive: 0	inactive: 0	inactive: 0	inactive: 0
COc1cc(N2CCC(N3CCN(C)CC3)CC2)ccc1Nc1nc2c(c(Nc3ccccc3S(=O)(=O)NC(C)C)n1)CCN2 [Conteltinib] (10 µM)	inactive: 0	inactive: 0	inactive: 0	inactive: 0	inactive: 0	inactive: 0	inactive: 0	inactive: 0	inactive: 0	inactive: 0	inactive: 0	inactive: 0	inactive: 0	inactive: 0	inactive: 0	inactive: 0	inactive: 0	inactive: 0	inactive: 0	inactive: 0
CC(C)(O)[C@@H]1CC[C@](C)([C@H]2[C@@H](O)C[C@@]3(C)[C@@H]4C[C@H](O[C@@H]5O[C@H](CO)[C@@H](O)[C@H](O)[C@H]5O)[C@H]5C(C)(C)[C@@H](O[C@@H]6OC[C@@H](O)[C@H](O)[C@H]6O[C@@H]6O[C@H](CO)[C@@H](O)[C@H](O)[C@H]6O)CC[C@@]56C[C@@]46CC[C@]23C)O1 [Astragaloside VI] (10 µM)	inactive: 0	inactive: 0	inactive: 0	inactive: 0	inactive: 0	inactive: 0	inactive: 0	inactive: 0	inactive: 0	inactive: 0	inactive: 0	inactive: 0	inactive: 0	inactive: 0	inactive: 0	inactive: 0	inactive: 0	inactive: 0	inactive: 0	inactive: 0
